PubChem BioAssay AID540275 (National Center for Advancing Translational Sciences (NCATS), 2011)
Screen size: about 320,000 compounds; about 620 (0.19%) were called active. The shares of active, inactive and inconclusive entries below differ from those in the screen. Rule as the data show it: active = activation above about 80%; inconclusive = between about 30% and that limit; inactive = weaker than that.

Chains of the proteins cited; added tags and fusions are not shown.
UniProt Q8NER1, whole entry, looked up: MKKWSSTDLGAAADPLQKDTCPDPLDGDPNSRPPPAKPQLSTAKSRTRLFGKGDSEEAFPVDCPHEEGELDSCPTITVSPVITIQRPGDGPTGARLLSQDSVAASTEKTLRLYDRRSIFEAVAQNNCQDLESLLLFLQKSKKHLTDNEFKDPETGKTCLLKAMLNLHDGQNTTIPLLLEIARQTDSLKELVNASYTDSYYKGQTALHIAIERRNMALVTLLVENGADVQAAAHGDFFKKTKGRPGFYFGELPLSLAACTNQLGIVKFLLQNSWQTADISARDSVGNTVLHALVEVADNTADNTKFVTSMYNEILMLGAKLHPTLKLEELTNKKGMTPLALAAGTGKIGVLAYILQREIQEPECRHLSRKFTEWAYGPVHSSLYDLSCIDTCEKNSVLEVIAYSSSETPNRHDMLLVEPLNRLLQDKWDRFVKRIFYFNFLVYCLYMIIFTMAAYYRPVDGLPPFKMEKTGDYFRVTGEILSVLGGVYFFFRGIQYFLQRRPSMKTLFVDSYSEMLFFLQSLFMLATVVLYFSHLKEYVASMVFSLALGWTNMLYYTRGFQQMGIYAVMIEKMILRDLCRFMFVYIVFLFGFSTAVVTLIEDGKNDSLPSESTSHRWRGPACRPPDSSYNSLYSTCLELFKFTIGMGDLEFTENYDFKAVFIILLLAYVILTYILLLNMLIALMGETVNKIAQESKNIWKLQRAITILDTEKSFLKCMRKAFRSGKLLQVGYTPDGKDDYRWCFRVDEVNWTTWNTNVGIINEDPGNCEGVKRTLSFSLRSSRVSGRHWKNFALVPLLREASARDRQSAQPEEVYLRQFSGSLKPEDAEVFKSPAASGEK

target: Transient receptor potential cation channel subfamily V member 1 (Homo sapiens) (UniProt Q8NER1); test: HTS Assay for Compounds that Act as Agonists of the Vanilloid Receptor 1; details: TRPV1-expressing cells, Fluo-8 calcium influx, agonist mode; at 8.33 µM, stronger effect = higher value; also: 0% is about no effect
Procedure, shortened: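 TRPV1-expressing cells were cultured overnight at 35.5C and loaded with Fluo-8 calcium dye for 40 to 90 min at room temperature. After a 10 s baseline, compound was added and calcium influx was read kinetically for 3 min (ex 480/em 520 nm).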

Compound	activation
C=CCn1c(SCC(N)=O)nnc1-c1cc2c(s1)CCC(CC)C2 (stereo not given)	inconclusive: 34%
COC(=O)Cn1c(=NC(=O)c2ccc(Cl)s2)sc2cc(F)ccc21	inconclusive: 30.9%
CCOC(=O)CSc1nc2cc(C)cc(C)c2cc1C#N	inconclusive: 37%
COc1ccc(CN(C)CC(=O)Nc2ccccc2-c2ccccc2)c(OC)c1	inconclusive: 54.3%
CCOC(=O)c1ccc(NC(=O)Nc2ccc(Cl)cn2)cc1	inactive: -14.8%
O=C(c1ccc(-n2cccc2)cc1)N1CCCCC1	inconclusive: 59%
COc1ccc(/C=C/C(=O)NCc2ccccn2)cc1OC	inactive: -9.62%
Cc1cc(C)nc(SC2CC(=O)N(c3ccc(Br)cc3)C2=O)n1 (stereo not given)	inactive: -2.14%
CCNC(=S)N/N=C(\C)c1cccc(C(F)(F)F)c1	inconclusive: 30.6%
Cc1ccc(C(=O)NCc2ccc3c(c2)CCO3)cc1C	inconclusive: 51%
CC(C)c1ccc(/C=C(\NC(=O)c2ccccc2)C(=O)NCCCn2ccnc2)cc1	inactive: 28.7%
Cc1cc(C)n(-c2ccc(Cl)c(Cl)c2)n1	inactive: 4.24%
Cc1cc(C)n2nc(SCc3cccc(S(=O)(=O)N(C)C)c3)nc2n1	inactive: -7.96%
Cc1ccc(C(=O)OCC(=O)c2c[nH]c3ccccc23)cc1	inactive: 10.9%
O=C(NCc1cn(-c2ccccc2)nc1-c1ccc(F)cc1)c1cccc([N+](=O)[O-])c1	inconclusive: 51.6%
COc1ccc(-c2cc3nc(C)c(CCC(=O)NCc4ccc(F)cc4)c(C)n3n2)c(OC)c1	inconclusive: 38.8%
O=C(Nc1ccc(Cl)cc1)ON=C1CCCC1	inconclusive: 33.9%
C#CCNC(=O)c1ccc(OCc2ccccc2)cc1Cl	inconclusive: 43.8%
O=C(Cc1cccc(F)c1F)NC1CCCN(Cc2ccc(Cl)cc2)C1 (stereo not given)	inconclusive: 51.5%
CC(NC(=O)c1ccc(-c2cc(C(F)(F)F)ccc2Cl)o1)c1ccccc1 (stereo not given)	inconclusive: 59.7%
CC1CCCCN1C(=S)Nc1ccc2nc3n(c(=O)c2c1)CCCCC3 (stereo not given)	inactive: -0.742%
S=C(NCCCc1ccccc1)Nc1ccc(Cl)cc1	inconclusive: 51.1%
O=c1[nH][nH]c2c(N=Cc3ccccc3O)ccc(F)c12	inactive: 0.269%

Compound	activation
CSc1nc2nc3c(cn2n1)C(=O)CC(c1ccccc1)C3 (stereo not given)	inactive: -1.54%
Cc1ccccc1C(=O)O/N=C(\N)Cc1cccs1	inactive: 3.98%
CC(CCc1ccccc1)NC(=S)NC1CCCCC1 (stereo not given)	inconclusive: 51.4%
CCCn1nc(NC(=O)C(C)C)c2cc3cc(OC)ccc3nc21	inconclusive: 35.3%
COc1cc(/C=N/NC(=S)NC(C)C)ccc1OCC(=O)Nc1c(C)cc(C)cc1C	inactive: -3.33%
Cc1ccc2nc(-c3ccc(SCC(=O)Nc4cc(C)on4)nc3)[nH]c2c1	inconclusive: 51.7%
CCn1cc(C2C3=C(CC(C)(C)CC3=O)N(c3ccccc3)C3=C2C(=O)CC(C)(C)C3)c(C)n1	inconclusive: 35.1%
N#Cc1ccc(NC(=O)CCc2ccc(S(=O)(=O)N3CCOCC3)cc2)cc1	active: 102%
COc1ccc(SC[C@H](C)CN2CC[C@H](C(C)(C)C)CCC2=O)cc1	inconclusive: 44.6%
Cc1cc(OC(C)C(=O)NCC2CCCO2)cc(C)c1Cl (stereo not given)	inconclusive: 47.4%
Clc1ccc(OCc2nn3c(C4CCCCC4)nnc3s2)c(Cl)c1	inconclusive: 32.8%
CCCn1c(=O)n(C)c(=O)c2c(SCC(=O)Nc3cc(C)on3)nc(C(C)(C)C)nc21	inactive: 8.7%
CCc1cccc(NC(=O)CN2C(=O)NC3(CCCCCCC3)C2=O)c1	inconclusive: 47%
Cc1nn(Cc2ccccc2)c2sc(C(=O)N3CCN(Cc4ccc5c(c4)OCO5)CC3)cc12	inactive: 24%
CC(C)CC(NC=C1C(=O)OC(C)(C)OC1=O)C(=O)O (stereo not given)	inconclusive: 34%
Cc1cc(Cl)c(S(=O)(=O)N2CCN(c3ccccn3)CC2)cc1OCC(=O)NC1CCCCC1	inactive: 7.73%
COc1ccccc1C(=O)NCC1(c2ccccc2)CCCC1	inconclusive: 42%
CCC(C)c1ccc(N(C(=O)c2ccco2)C(C(=O)NC2CCCC2)c2cccnc2)cc1 (stereo not given)	inconclusive: 42.1%
Cc1ccc(N2CCCn3c2nc2c3c(=O)n(CC(=O)OCc3ccccc3)c(=O)n2C)cc1C	inactive: -0.348%
CCc1cccc(NC(=O)C2CCCC2)c1	inconclusive: 31.4%
Cc1occc1C(=O)N1CCCC(Nc2ccc(F)cc2)C1 (stereo not given)	inconclusive: 34.4%
Cc1cc2c(cc1C)C(c1ccccc1OC(C)C)CC(=O)N2 (stereo not given)	inconclusive: 51.1%
O=C(NC1CCCCCC1)c1cccc(COCC(F)(F)F)c1	inconclusive: 32.8%

Shown as comma-separated lines: five of the compounds above.
Compound,activation
CSc1nc2nc3c(cn2n1)C(=O)CC(c1ccccc1)C3 (stereo not given),inactive: -1.54%
Cc1ccccc1C(=O)O/N=C(\N)Cc1cccs1,inactive: 3.98%
CC(CCc1ccccc1)NC(=S)NC1CCCCC1 (stereo not given),inconclusive: 51.4%
CCCn1nc(NC(=O)C(C)C)c2cc3cc(OC)ccc3nc21,inconclusive: 35.3%
COc1cc(/C=N/NC(=S)NC(C)C)ccc1OCC(=O)Nc1c(C)cc(C)cc1C,inactive: -3.33%

(list continues)

Compound	activation
Cc1ccc(SCC(=O)OCc2csc(CC(=O)Nc3ccccc3C)n2)cc1C	inactive: -3.38%
COc1ccc(CC(=O)OCC(=O)NCc2ccccc2Cl)cc1OC	inconclusive: 74.2%
CCCCCC/C(C)=C1/SC(=S)NC1=O	inactive: -0.649%
CCC(=O)N1CCN(c2ccc(Cl)cc2NC(=O)c2ccc3c(c2)OCCO3)CC1	inconclusive: 34.1%
CC(=O)Nc1ccc(SC[C@H](Cc2ccccc2)N2CC[C@@H](C)CCC2=O)cc1	inconclusive: 53.8%
c1ccc(CNc2ncnc3c2cnn3Cc2ccccc2)cc1	inconclusive: 58.5%
Cc1ccn2c(Nc3ccccc3)c(-c3ccccn3)nc2c1	inconclusive: 50.9%
Cc1ccccc1NC(=S)c1ccc2ccccc2n1	inactive: -1.58%
O=C(CN1C(=O)c2cccnc2Oc2ccc(Cl)cc21)NCCC1=CCCCC1	inconclusive: 54.8%
Cc1ccc(C2CC(c3cccs3)=NN2C(=O)CSC2=NCCS2)cc1 (stereo not given)	inconclusive: 42.9%
CCCNC(=O)Cn1c(=O)/c(=C\c2ccc(-c3ccc([N+](=O)[O-])cc3)o2)s/c1=C\C(=O)C(C)(C)C	inconclusive: 47.7%
Nc1nonc1-n1nnc(C(=O)N/N=C/c2ccoc2)c1-c1ccccc1	inactive: 3.09%
Cc1ccc(NC(=O)c2cc(N3C(=O)C=CC3=O)ccc2N2CCOCC2)cc1	inactive: 12.5%
C[C@H](NC(=O)c1[nH]cnc1C(=O)Nc1cccc(Cl)c1)c1ccccc1	inconclusive: 32.3%
Cc1cccc(Nc2ncccc2C(=O)NCc2cccs2)c1C	inactive: 4.61%
O=S(=O)(c1ccc(Br)cc1)N1CCCN(Cc2cccc(F)c2)CC1	inactive: 10.9%
CN(CC(=O)Nc1ccc(F)cc1)C(=O)c1cc(-c2cccs2)nn1-c1ccccc1	inconclusive: 31.6%
Cc1ccc(NC(=O)c2oc3ccccc3c2C)nc1	inconclusive: 44.2%
O=C(NCc1ccccc1Cl)C1CCN(S(=O)(=O)c2cccc3nonc23)CC1	inconclusive: 53.7%
Cc1ccc(-n2c(SCC(=O)Nc3ccc4cn[nH]c4c3)nnc2-c2ccco2)cc1	inactive: 8.5%
Cc1ccc(CNCC(O)(c2ccccc2)c2ccc(Cl)cc2)cc1 (stereo not given)	inactive: 1.81%
Cc1nn(-c2ccccc2)c2sc(C(=O)N(Cc3ccco3)C(C)C(=O)NC(C)(C)C)cc12 (stereo not given)	inconclusive: 35.1%
Cc1ccccc1NC(=O)c1cnn(-c2ccccc2)c1C	inconclusive: 42.5%

An excerpt from above in order of count of non-hydrogen atoms, smallest number first.
Compound	activation
O=S(=O)(c1ccc(Br)cc1)N1CCCN(Cc2cccc(F)c2)CC1	inactive: 10.9%
O=C(NCc1ccccc1Cl)C1CCN(S(=O)(=O)c2cccc3nonc23)CC1	inconclusive: 53.7%
CCCNC(=O)Cn1c(=O)/c(=C\c2ccc(-c3ccc([N+](=O)[O-])cc3)o2)s/c1=C\C(=O)C(C)(C)C	inconclusive: 47.7%

(more compounds)

Compound	activation
C=CCn1c(=O)/c(=C/c2ccc(F)cc2)s/c1=C(\C#N)c1nnc2n1CCCCC2	inconclusive: 65%
CC(C)(C)c1ccc(C(=O)NNC(=O)C2CCCCC2)cc1	active: 90.4%
CC(C)C(=O)N1CCN(c2c(Cl)cccc2[N+](=O)[O-])CC1	inconclusive: 38.8%
Cc1cc(=O)[nH]c(SCC(=O)N2CCN(C(c3ccccc3)c3ccccc3)CC2)n1	inconclusive: 53.3%
Nc1ccc(C(=O)NC2CCSc3ccccc32)cc1[N+](=O)[O-] (stereo not given)	inconclusive: 77.2%
Oc1ccc(N=Nc2ccc3c(c2)OCO3)c2ccccc12	inactive: 2.9%
Cn1c(SCC(=O)N(C2CCCCC2)C2CCCCC2)nnc1-c1cccs1	inconclusive: 46.5%
CC1CCCCC1Nc1nc2ccc(Cl)cc2n2cnnc12 (stereo not given)	inactive: 17.6%
COc1cccc(COC(=O)c2sc3nc4n(c(=O)c3c2C)CCC4)c1OC	inactive: -1.09%
Cc1ccccc1NS(=O)(=O)c1ccc2[nH]cc(C(=O)NC3CCCCC3)c(=O)c2c1	inactive: 9.7%
CCOC(=O)CSc1nc2ccccc2c(=O)n1CC1CCCC1	inconclusive: 46.7%
COc1ccc(NC(=O)C(=O)Nc2cccc3cccnc23)c(OC)c1	inactive: -3.9%
CC1(C)CC(=O)/C(=C(/O)Cc2ccccc2)C(=NCCc2ccccc2)C1	inconclusive: 32.9%
Cc1cccc(OCCCC(=O)N2CCCCCC2)c1C	inconclusive: 42.7%
CCc1cc(C(=O)NNC(=O)c2csc(N3CCOCC3)n2)sc1C	inconclusive: 54%
CN(CCC(=O)Nc1ccc2c(c1)OCO2)Cc1ccccc1	inactive: -0.772%
O=C(CCCc1ccccc1)NCc1ccc(Cl)cc1	inconclusive: 61.4%
COc1ccc(S(=O)(=O)N2CCOC23CCN(S(=O)(=O)c2ccc(Cl)cc2)CC3)cc1	inactive: -3.41%
Cn1c(=O)c([N+](=O)[O-])c(N2CCSCC2)c2ccccc21	inconclusive: 40.3%
NC(=O)c1cc(Cl)ccc1OCC(=O)Nc1ccc2c(c1)OCO2	inactive: 0.715%
COc1ccc(/C=N\NC(=O)c2cc3c(ccc4ccccc43)o2)cc1O	inconclusive: 60.7%
